From paper PMC8591536, “DNA asymmetry promotes SUMO modification of the single‐stranded DNA‐binding protein RPA” (The EMBO Journal, 2021)
Results are given in words; binding and its absence hold for the method and conditions named. Some results given as binding are weak or reduced against the parent protein; the word gives no strength.

Chains of the proteins cited; added tags and fusions are not shown. Lines headed by an entry give the natural chain unless they say otherwise; changes in a name come on top. Residues count along the entry.
UniProt P26754: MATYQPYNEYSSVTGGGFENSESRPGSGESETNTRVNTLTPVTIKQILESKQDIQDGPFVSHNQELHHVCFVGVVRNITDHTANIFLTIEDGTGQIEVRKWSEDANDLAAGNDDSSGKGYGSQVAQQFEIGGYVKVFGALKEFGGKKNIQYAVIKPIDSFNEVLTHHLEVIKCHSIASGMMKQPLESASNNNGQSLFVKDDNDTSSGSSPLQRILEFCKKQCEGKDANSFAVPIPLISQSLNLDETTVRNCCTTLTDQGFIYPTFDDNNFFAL
His6-Rfa2(1–205): residues 1-205 of P26754
UniProt P26755: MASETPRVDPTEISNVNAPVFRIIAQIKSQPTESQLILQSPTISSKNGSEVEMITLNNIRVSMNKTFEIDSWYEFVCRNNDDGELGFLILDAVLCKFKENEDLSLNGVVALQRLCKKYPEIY
UniProt P22336: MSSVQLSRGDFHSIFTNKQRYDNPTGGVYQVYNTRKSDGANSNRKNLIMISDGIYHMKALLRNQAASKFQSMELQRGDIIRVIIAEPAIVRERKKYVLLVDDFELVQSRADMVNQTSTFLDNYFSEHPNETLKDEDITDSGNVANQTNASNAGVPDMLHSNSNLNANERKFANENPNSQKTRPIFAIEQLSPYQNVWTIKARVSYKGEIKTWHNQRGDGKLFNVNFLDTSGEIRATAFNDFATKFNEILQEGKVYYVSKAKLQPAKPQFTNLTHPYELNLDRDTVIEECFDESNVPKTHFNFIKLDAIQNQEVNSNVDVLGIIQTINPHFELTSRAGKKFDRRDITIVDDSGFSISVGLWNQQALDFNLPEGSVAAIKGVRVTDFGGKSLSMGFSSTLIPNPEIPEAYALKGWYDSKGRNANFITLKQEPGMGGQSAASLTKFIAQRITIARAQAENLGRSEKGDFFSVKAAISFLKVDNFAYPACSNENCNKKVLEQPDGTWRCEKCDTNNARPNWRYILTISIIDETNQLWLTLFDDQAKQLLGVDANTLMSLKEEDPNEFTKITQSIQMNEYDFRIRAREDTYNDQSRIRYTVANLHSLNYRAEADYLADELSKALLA

Columns and labels:
[1] = molecular target: His6-Rfa2(1–205) (budding yeast) (UniProt P26754); assay: co-purification (Ni-NTA, HiTrap Heparin, Superdex200); soluble extract of E. coli co-expressing tagless Rfa1, His6-Rfa2 and tagless Rfa3 applied to Ni-NTA; 20 mM Tris-HCl pH 8.0, 350 mM NaCl; eluted with 400 mM imidazole
[2] = molecular target: His6-Rfa2(1–273) (budding yeast) (UniProt P26754); assay: as above

binding [1]	binding [2]	Substance
binds	binds	Rfa3(1–122) (from UniProt P26755 1-122)
binds	binds	Rfa1(1–621) (from UniProt P22336 1-621)
